Measurements reported in PubChem BioAssay AID1508597 (Cure First, 2020)
Assay: 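Genes whose silencing sensitises or protects ovarian cancer cells against rucaparib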 (primary screen). Cell system: human ovarian carcinoma lines grown from tumours: OCI-P5x (papillary serous) and OCI-C5x (clear cell). Reagents: siRNA pool against human genes, 1.25 pmol siRNA per well. Duration: 72 h or 96 h, depending on the cell culture. Conditions: rucaparib 20 µM (about IC30) or vehicle, present until read-out. Rucaparib or vehicle: Vehicle. Cell line: OCI-P5x (serous). Read-out: 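ATP luminescence measured at 72 or 96 h according to the culture, then normalised and expressed as percent viability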. Reading the numbers: viability, normalised: higher = more viable cells remaining. Call rule: 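a well counts as a hit if its normalised viability is under 80 percent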. Meaning of the calls: active = viability under 80%; inactive = viability 80% or more.
Shown is a random part of the about 2,100 reagents, in one setting of the screen. 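Calls flag viability under 80% in either arm, not effects specific to rucaparib; the reference for percent is not stated.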 No sequences are given here. Not given: the 100% reference.

For NCOA3 (nuclear receptor coactivator 3), technical replicate 1 the deposit lists viability, normalised (%) = 45.1; active.
With NCOA3 (nuclear receptor coactivator 3), technical replicate 2, the values are viability, normalised (%) = 53.2; active.
NCOA3 (nuclear receptor coactivator 3), technical replicate 3 showed viability, normalised (%) = 53.2; active.
For FEN1 (flap structure-specific endonuclease 1), technical replicate 1, the entry reads viability, normalised (%) = 79.2; active.
FEN1 (flap structure-specific endonuclease 1), technical replicate 2 showed viability, normalised (%) = 81.1; inactive.
FEN1 (flap structure-specific endonuclease 1), technical replicate 3 showed viability, normalised (%) = 75.7; active.

Called active (from the list above):
NCOA3 (nuclear receptor coactivator 3), technical replicate 1 → viability, normalised (%) = 45.1; call = active
NCOA3 (nuclear receptor coactivator 3), technical replicate 2 → viability, normalised (%) = 53.2; call = active
NCOA3 (nuclear receptor coactivator 3), technical replicate 3 → viability, normalised (%) = 53.2; call = active
FEN1 (flap structure-specific endonuclease 1), technical replicate 1 → viability, normalised (%) = 79.2; call = active
FEN1 (flap structure-specific endonuclease 1), technical replicate 3 → viability, normalised (%) = 75.7; call = active

Further reagents follow:
For CDK9 (cyclin dependent kinase 9), technical replicate 1, the entry reads viability, normalised (%) = 83.7; inactive.
For CDK9 (cyclin dependent kinase 9), technical replicate 2, the values are viability, normalised (%) = 85.4; inactive.
CDK9 (cyclin dependent kinase 9), technical replicate 3 scored viability, normalised (%) = 73.6; active.
KMT2C (lysine methyltransferase 2C), technical replicate 1 gave viability, normalised (%) = 74.2; active.
For KMT2C (lysine methyltransferase 2C), technical replicate 2, the entry reads viability, normalised (%) = 75.5; active.
KMT2C (lysine methyltransferase 2C), technical replicate 3 gave viability, normalised (%) = 49.6; active.
